The values are deposited in ChEMBL (CHEMBL3988442, “University of Dundee, Small-Polar-MMV Screening Library” (2021)).

Values are the deposited “Percent Effect”, in %. The record does not define 0% and 100%; most values in the screen are far below 50% and negative numbers occur (in some assays of this library far below -100). Compounds were drawn at random from those tested, without regard to their results.

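Whole-parasite assay of Trypanosoma brucei over 72 hours; the read-out is not stated. Tested at 30 µM. The record gives no direction; compounds that gave an IC50 in retests scored well above the rest, so higher reads as stronger inhibition. Values scatter widely below zero; nearly all retest evidence comes from the higher of the two concentrations used. Size under these conditions: about 64,000 compounds, about 940 of them at 50% or above in at least one test.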

c1cnn(CC2CCCN2Cc2cn3ccsc3n2)c1 (stereo not given) gave -14.25%. OC(CN1CCN(Cc2nnc(C3CC3)o2)CC1)c1ccccc1 (stereo not given) gave -30.92%. O=C(NCc1cccc(F)c1)Nc1ccn(CCN2CCOCC2)n1 gave -2.062%. Result for O=C(CNC(=O)c1c[nH]c2ccccc12)NCCCn1ccnc1 was 9.846%.

NC(=O)C(NCc1cccs1)c1ccccc1 (stereo not given) gave -35.5%. O=C(CN1CCNC1=O)N1CCc2nnc(-c3ccccc3)n2CC1 gave -38.26%. Cc1cc(-c2cnc(NC3CCCCC3)nc2-c2ccco2)on1 gave 43.12%. Cc1nc2cc(C(=O)N3C[C@@H](C(=O)O)[C@H](C4CC4)C3)ccc2[nH]1 read -42.29%.

For Cc1ccc(Cn2ccc(NS(C)(=O)=O)n2)cc1 the result was 0.8431%. CCCc1noc(CN2CCCC2c2ccsc2)n1 (stereo not given) gave 55.39%. COCc1nccc(C2CCCN(Cc3ccc(SC)cc3)C2)n1 (stereo not given) read 3.657%. For c1cc(-c2nccn2CCc2nc3c(s2)CCC3)ccn1 the result was -22.26%.

COCCc1noc(CNCC2CCCN2c2cccnn2)n1 (stereo not given) read 17.43%. With CCCc1nc(C)cc(N2CCC3(CCC(=O)N(CCOC)C3)CC2)n1 the screen gave 0.03085%. For CCc1nc(CN(C)C2CCN(Cc3cnc(C)cn3)C2)no1 (stereo not given) the result was -36.04%. COc1c(CNCc2cccc(Cn3ccnc3)c2)c(C)nn1C gave 15.04%.

c1cn(-c2ccc(CN3CCCC3)cc2)c(-c2cc3n(n2)CCNC3)n1 read 4.418%. Result for O=C(O)C(F)(F)F.O=C(O)C(F)(F)F.[H][C@@]12C[C@@H](Oc3ccc(C)cc3)CN1CCN(c1ncc(F)cn1)C2 was 19.73%. For CNc1cc2c(nn1)CCN(C(=O)c1cccc3c1OCO3)C2 the result was 7.822%. For [H][C@]12CCC(=O)N(c3ccccc3)[C@@]1([H])CCN2C(=O)c1ccc(C#N)cc1 the result was 2.912%.

CCc1ncc2c(n1)CN(CC(=O)Nc1ccc(Cl)cn1)CC2 read -7.996%. Cc1nc2cc(=O)[nH]n2c(C)c1CC(=O)Nc1ccc2ccccc2n1 gave -36.34%. With CN(C)CCNC(=O)Cn1cnc2cc(NC(=O)C3CC3)ccc21 the screen gave -4.668%. Result for COC(=O)c1cccc(S(=O)(=O)Nc2ccc(Cl)c(C(N)=O)c2)c1 was -23.44%.

CCCN1CCc2[nH]cnc2C12CCN(C(=O)Cn1ccnc1C)CC2 gave -26.81%. For COCCCC1CCCN(C(=O)CCc2cc(O)no2)C1 (stereo not given) the result was -1.825%. Result for Cc1cc(NC(=O)CN2CCn3c(nnc3C3CC3)C2)n(C)n1 was -43.29%. Result for CN(C)Cc1nnc(C(=O)N(C)Cc2ccc(F)cc2)o1 was -1.92%.

With CS(=O)(=O)CCn1ccc(NC(=O)c2c(F)cccc2F)n1 the screen gave -6.432%. CCS(=O)(=O)N1CCc2ccc(NC(=O)NC3CCCCC3)cc21 read -1.28%. With Cc1cc(C)n(C2CN(c3ncnc4c3CCNCC4)C2)n1 the screen gave 3.882%. For COc1ccc(OCc2nc(C(=O)N3CCC(NC(C)=O)C3)co2)cc1 (stereo not given) the result was -14.46%.

With CN1CCC(N(C)C(=O)c2cnc3c(cnn3C3CCCC3)c2)CC1 the screen gave 8.543%. With COc1c(C2CCCN2CC(=O)N(C)c2nccs2)c(C)nn1C (stereo not given) the screen gave -7.822%. Cc1ccn(CCC(=O)NC(C)Cc2ccco2)n1 (stereo not given) read -14.68%. For COc1ccc(NC(=O)CNc2ccc(Br)cc2F)cc1 the result was 22.21%.

O=C(O)C(F)(F)F.[H][C@@]12OCCN(CC3CCOCC3)[C@@]1([H])CC[C@H]2OCC1CCCC1 gave -19.81%. CC(Cn1cccn1)NCc1csc(-c2ccc(F)cc2)n1 (stereo not given) gave -15.83%. Cc1ccc(NCc2cccc3cn[nH]c23)cc1OC1CCOC1 (stereo not given) gave -25.76%. COc1ccc(CN2CCOC(CCc3ccnc(N)c3)C2)cc1 (stereo not given) read 20.89%.

For Cc1nc(CN2C(=O)CC3(CCN(C(N)=O)CC3)c3ccccc32)cs1.O=C(O)C(F)(F)F the result was -72.93%. Result for CC1CCN(c2nc3ncc4c(c3c(=O)[nH]2)CC(C)(C)CC4=O)CC1 was 4.101%. With [H][C@@]12CCN(Cc3nccs3)C[C@]1([H])[C@@H](CN(C)Cc1ccco1)OC2 the screen gave 10.45%.

For reference, 3 entries once more:

structure,Percent Effect
COCc1nccc(C2CCCN(Cc3ccc(SC)cc3)C2)n1 (stereo not given),3.657%
CCCN1CCc2[nH]cnc2C12CCN(C(=O)Cn1ccnc1C)CC2,-26.81%
O=C(NCc1cccc(F)c1)Nc1ccn(CCN2CCOCC2)n1,-2.062%